The values are deposited in ChEMBL (CHEMBL3988442, “University of Dundee, Small-Polar-MMV Screening Library” (2021)).

The chains behind the UniProt entries cited, without tags or fusion partners. Residues count along the entry.
UniProt A4I591, 1-473: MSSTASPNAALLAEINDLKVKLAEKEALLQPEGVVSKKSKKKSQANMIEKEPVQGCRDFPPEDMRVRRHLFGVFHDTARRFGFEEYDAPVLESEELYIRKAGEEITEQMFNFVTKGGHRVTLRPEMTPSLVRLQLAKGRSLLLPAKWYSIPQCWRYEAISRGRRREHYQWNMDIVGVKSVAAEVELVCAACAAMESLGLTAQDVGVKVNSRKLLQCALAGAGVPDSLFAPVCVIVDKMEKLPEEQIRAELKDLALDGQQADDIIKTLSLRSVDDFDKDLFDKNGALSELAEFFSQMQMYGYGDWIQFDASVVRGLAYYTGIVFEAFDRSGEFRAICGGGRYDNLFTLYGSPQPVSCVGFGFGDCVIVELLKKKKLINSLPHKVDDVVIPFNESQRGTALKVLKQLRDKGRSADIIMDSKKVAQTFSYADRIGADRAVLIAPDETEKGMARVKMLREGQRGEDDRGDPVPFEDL

Results are given as percent effect. How 0% and 100% were set is not recorded. Most values in the screen are low, and negative values occur. This is an unselected part of the compounds tested.

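Enzyme assay of histidyl-tRNA synthetase; the read-out is not stated. Target: Histidine-tRNA ligase, Leishmania infantum (UniProt A4I591). Concentration: 30 µM. Higher reads as stronger inhibition (inferred: compounds with an IC50 in retests scored well above the rest). The assay is labelled LdHisRS but filed under L. infantum. Of about 69,000 compounds tested this way, about 410 (0.6%) reached 50% or more in at least one test.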

- NC(=O)Nc1cccc(Oc2ccccn2)c1 | 5.714%
- CCOC1COC2(CCN(Cc3ccc(C)c(C)c3)CC2)C1 (centres unmarked) | 19.23%
- Cc1ccsc1-c1nccn1CCN1CCCCC1CO (centres unmarked) | 9.375%
- O=C(c1ccc(-n2ccnc2)cc1)N1CCCC(n2ccnc2)C1 (centres unmarked) | 10.71%
- Cc1c(C(=O)NCCC(=O)N2CCCC2)oc2c(F)cccc12 | 22.81%
- CNc1ccc(C(=O)N(C)Cc2ccc3ccccc3n2)cn1 | 1.266%
- CC(C)(C)SCCNC(=O)[C@@]12CNC[C@@H]1CN(S(C)(=O)=O)C2 | 2.151%
- NC(=O)c1cnn2c1NCC(CNCCc1ccco1)C2 (centres unmarked) | 13.6%
- CC(CO)(NC(=O)Nc1nncs1)C1CCCCC1 (centres unmarked) | 15.79%
- COc1cc(CNC(C)c2cccc(Cl)c2)cc(OC)c1OC (centres unmarked) | 11.61%
- CC(C)n1ccc(-c2cc(C(=O)N3CCN(C)CC3)c3ccccn23)n1 | 10%
- NC(=O)c1ccc(CN2CCCC(N3CCCC3)C2)cc1 (centres unmarked) | 21.15%
- N#Cc1cccc(N2CCCC(CO)(Cc3ccccc3F)C2)n1 (centres unmarked) | 23.89%
- CC(c1cccnc1)N1CCN(CCCC#N)CC1 (centres unmarked) | 15.05%
- Cc1nc(CNCC2CCCN2c2cccnn2)cs1 (centres unmarked) | 4%
- O=C(Nc1ccccc1)N1CCn2nnc(COc3cccnc3)c2C1 | 17.65%
- CCc1c(C)nc2cc(C3CCN(Cc4ccccc4F)C3)nn2c1O (centres unmarked) | 30.56%
- c1cnn(CCNCc2csc(-c3ccc4c(c3)OCO4)n2)c1 | -2.564%
- Cc1nccnc1C1CCN(C(=O)C(C)C)CC1 | 11.59%
- CN(C)c1ncc(CNC(=O)Nc2ccc(C(F)(F)F)cc2)n1C | 15.38%
- CCc1cccc(N2CCC(NC(=O)C3CCCO3)CC2)c1 (centres unmarked) | 11.3%
- Cc1cccc(N2CCC3(CCN(Cc4ccccn4)CC3)CC2)n1 | 18.42%
- CC(C)(C)c1nnc(CN2CCCC2Cn2cncn2)o1 (centres unmarked) | 15.74%
- Cc1noc(C(C)Nc2ccc(N3CCOCC3)cc2C)n1 (centres unmarked) | 63.04%
- CCS(=O)(=O)N1CCOCC2(CCN(c3ccccn3)C2)C1 (centres unmarked) | 17.95%
- CCNC(=O)[C@H]1CN(Cc2ccccc2)C[C@@H]1C(=O)c1ccccc1 | 9.859%
- CN1CCN(C(=O)c2cc(-c3cccs3)cs2)CC1 | 20.99%
- COCCCOc1ccc(C(=O)N(C)CCC(C)C)cn1 | 15.18%
- O=C(c1cnco1)N1CCC(Cc2ccc3ncccc3c2)CC1 | 36.62%
- Cc1noc(-c2ccc(-n3ncc(C(=O)O)c3C)nc2)n1 | 3.297%
- Cc1ncsc1C(=O)N1CCc2nnc(C3CCCCN3C)n2CC1 (centres unmarked) | 13.42%
- CCc1nnc(CN(CC)C(=O)C2CC(=O)N(C3CCCC3)C2)o1 (centres unmarked) | 11.48%
- COC(=O)c1cc2c(OC)c(C)c(OC)cc2[nH]1 | 0%
- Cc1ccc([C@@H]2CN(C(=O)c3ccc[nH]3)C[C@H]2NC(=O)C2CC2)cc1 | 5.714%
- CS(=O)(=O)N1C[C@@H](C(=O)Nc2cnccn2)C[C@H]2OCC[C@H]21 | 13.79%
- Cc1nc(CN2CCCn3cnc(COCC4CC4)c3C2)cs1 | 30.56%
- O=C(NCCN1CCCCCC1=O)c1n[nH]c(=O)c2ccccc12 | 8.219%
- O=C1NCC2(CCCN(Cc3ccc(F)cc3)C2)Oc2ccccc21 (centres unmarked) | 13.54%
- CCCS(=O)(=O)N1CCC(c2ccc(OC)cc2)CC1 | 6.667%
- CCOCC1CN(S(=O)(=O)Cc2ccccc2)Cc2nccn2C1 (centres unmarked) | 15.84%
- O=C(Cc1cccs1)NC1(C(=O)NCC2CC2)CCCC1 | 3.509%
- Cc1noc(-c2ccnc(N3CCCN(C4CCOCC4)CC3)c2)n1 | -2.857%
- O=c1c2sccc2nc2n1CCN(Cc1ccsc1)CC2 | 0%
- O=C(NCC1(c2ccc(F)cc2)CCCC1)N1CCOC(CO)C1 (centres unmarked) | 6.25%
- Cc1cc(NCCCc2c(C)noc2C)nc(N)n1 | 14.29%

Some entries from above, unchanged:

Compound	effect
O=C(NCC1(c2ccc(F)cc2)CCCC1)N1CCOC(CO)C1 (centres unmarked)	6.25
CC(C)(C)SCCNC(=O)[C@@]12CNC[C@@H]1CN(S(C)(=O)=O)C2	2.151
O=C(Cc1cccs1)NC1(C(=O)NCC2CC2)CCCC1	3.509
CC(C)n1ccc(-c2cc(C(=O)N3CCN(C)CC3)c3ccccn23)n1	10
CCc1cccc(N2CCC(NC(=O)C3CCCO3)CC2)c1 (centres unmarked)	11.3